Assay results: US7534763B2 (Bristol-Myers Squibb Company, priority 2004, dated 2009)

Assay: general procedure: Fmoc solid-phase peptide synthesis; Sieber amide resin (loading 0.5 to 0.7 mmol/g); Rink amide MBHA or PAL resin for C-terminal carboxamides; 2-chlorotrityl; DIC/HOBT, HBTU/HOBT, BOP, PyBOP, DIC/HOAT, HATU/HOAT
Conditions: whole synthesis

## H-H[αMeP]EGT[αMePhe(2-F)]THD[Bip(2'-Et-4'-OMe)][Ala(6-(2-MePh)pyridin-3-yl)]-NH2 (SMILES CCc1cc(OC)ccc1-c1ccc(C[C@H](NC(=O)[C@H](CC(=O)O)NC(=O)[C@H](Cc2c[nH]cn2)NC(=O)[C@@H](NC(=O)[C@](C)(Cc2ccccc2F)NC(=O)[C@@H](NC(=O)CNC(=O)[C@H](CCC(=O)O)NC(=O)[C@]2(C)CCCN2C(=O)[C@@H](N)Cc2c[nH]cn2)[C@@H](C)O)[C@@H](C)O)C(=O)N[C@@H](Cc2ccc(-c3ccccc3C)nc2)C(N)=O)cc1)
Analytical RP-HPLC, YMC ODS S3 (4.6x50 mm), UV/VIS or diode array detector, scale 0.05 mmol
  final HPLC purity: 94%
Scale 0.05 mmol
  isolated mass: 21.7 mg
  isolated yield: 42% recovery

## H-H[dNMeA]EGT[αMePhe(2-F)]TSD[Bip(2'-Et-4'-OMe)][Ala(6-(2-MePh)pyridin-3-yl)]-NH2 (SMILES CCc1cc(OC)ccc1-c1ccc(C[C@H](NC(=O)[C@H](CC(=O)O)NC(=O)[C@H](CO)NC(=O)[C@@H](NC(=O)[C@](C)(Cc2ccccc2F)NC(=O)[C@@H](NC(=O)CNC(=O)[C@H](CCC(=O)O)NC(=O)[C@@H](C)N(C)C(=O)[C@@H](N)Cc2c[nH]cn2)[C@@H](C)O)[C@@H](C)O)C(=O)N[C@@H](Cc2ccc(-c3ccccc3C)nc2)C(N)=O)cc1)
Scale 0.015 mmole
  isolated mass: 5.2 mg
  isolated yield: 18.5% recovery

[ ]: non-standard residue; d: D form. Ala(6-(2-MePh)pyridin-3-yl) = Cc1ccccc1-c1ccc(C[C@H](N)C(=O)O)cn1; Bip(2'-Et-4'-OMe) = CCc1cc(OC)ccc1-c1ccc(C[C@H](N)C(=O)O)cc1; αMePhe(2-F) = C[C@](N)(Cc1ccccc1F)C(=O)O; αMeP = C[C@@]1(C(=O)O)CCCN1; dNMeA = CN[C@H](C)C(=O)O
